Some of the results follow.
Assays:
Experiment in all cases: log2 fold change, soluble protein after heating vs DMSO (PISA); higher = thermal stabilisation; K562 lysate, 10 uM; active = over 0.2 and 3.5 SD of the protein, either way, in both replicates (recomputed)
[1] = compound: CCCS(=O)(=O)Nc1ccc(F)c(C(=O)c2c[nH]c3ncc(-c4ccc(Cl)cc4)cc23)c1F [vemurafenib]
In short: (§1)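 K562 pellets were dounce-homogenised in PBS pH 7.4 containing 1 mM MgCl2, and the crude extract, at 1 mg/mL protein, was exposed to 10 μM compound for 30 min. Aliquots were heated for 3 min across 48°C-58°C, pooled, brought to 0.5% NP-40 at 4°C and spun at 21,000xg for 90 min, with the supernatant taken as soluble protein. TMTpro 16plex LC-MS/MS with equalised channel sums quantified that protein. Values are log-two fold changes in thermal stability relative to solvent controls, taken from duplicates.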

The chains behind the UniProt entries cited, without tags or fusion partners. Where a name states a change or a piece, a line headed by the entry shows the natural chain unless it says otherwise.
UniProt O75122: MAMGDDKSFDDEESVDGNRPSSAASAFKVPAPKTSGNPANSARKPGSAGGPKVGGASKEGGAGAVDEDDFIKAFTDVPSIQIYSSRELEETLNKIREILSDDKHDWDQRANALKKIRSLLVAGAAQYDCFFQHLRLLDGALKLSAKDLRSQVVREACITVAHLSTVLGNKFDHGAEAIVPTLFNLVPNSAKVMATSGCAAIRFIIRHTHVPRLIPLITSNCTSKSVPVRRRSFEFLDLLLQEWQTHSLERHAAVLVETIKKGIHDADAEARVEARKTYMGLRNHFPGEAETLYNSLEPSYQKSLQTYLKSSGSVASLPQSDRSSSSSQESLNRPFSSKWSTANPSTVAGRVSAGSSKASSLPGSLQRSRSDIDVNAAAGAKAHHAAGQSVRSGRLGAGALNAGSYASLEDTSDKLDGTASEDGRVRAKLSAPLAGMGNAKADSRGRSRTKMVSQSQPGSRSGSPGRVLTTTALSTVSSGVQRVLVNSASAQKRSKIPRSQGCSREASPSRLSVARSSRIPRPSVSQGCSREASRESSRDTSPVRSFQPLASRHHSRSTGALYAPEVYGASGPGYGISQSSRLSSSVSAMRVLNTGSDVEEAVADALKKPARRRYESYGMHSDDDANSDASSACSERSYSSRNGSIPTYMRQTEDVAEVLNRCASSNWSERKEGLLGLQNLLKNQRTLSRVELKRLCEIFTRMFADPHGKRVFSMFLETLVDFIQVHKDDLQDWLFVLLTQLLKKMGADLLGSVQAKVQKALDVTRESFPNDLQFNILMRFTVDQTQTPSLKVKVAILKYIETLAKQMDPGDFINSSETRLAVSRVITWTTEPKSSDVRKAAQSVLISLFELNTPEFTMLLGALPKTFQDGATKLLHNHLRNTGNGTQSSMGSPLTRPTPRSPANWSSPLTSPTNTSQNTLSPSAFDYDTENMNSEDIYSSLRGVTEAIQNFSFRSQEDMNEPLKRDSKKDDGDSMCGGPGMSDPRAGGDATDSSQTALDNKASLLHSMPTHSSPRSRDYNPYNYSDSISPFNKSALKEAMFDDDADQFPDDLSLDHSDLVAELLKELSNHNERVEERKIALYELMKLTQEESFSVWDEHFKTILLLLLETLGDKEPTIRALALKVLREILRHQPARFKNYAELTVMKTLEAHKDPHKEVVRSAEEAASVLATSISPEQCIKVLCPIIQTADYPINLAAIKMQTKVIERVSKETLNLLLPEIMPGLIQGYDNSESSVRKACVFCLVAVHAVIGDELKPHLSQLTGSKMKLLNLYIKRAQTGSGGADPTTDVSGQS
UniProt Q8TD26: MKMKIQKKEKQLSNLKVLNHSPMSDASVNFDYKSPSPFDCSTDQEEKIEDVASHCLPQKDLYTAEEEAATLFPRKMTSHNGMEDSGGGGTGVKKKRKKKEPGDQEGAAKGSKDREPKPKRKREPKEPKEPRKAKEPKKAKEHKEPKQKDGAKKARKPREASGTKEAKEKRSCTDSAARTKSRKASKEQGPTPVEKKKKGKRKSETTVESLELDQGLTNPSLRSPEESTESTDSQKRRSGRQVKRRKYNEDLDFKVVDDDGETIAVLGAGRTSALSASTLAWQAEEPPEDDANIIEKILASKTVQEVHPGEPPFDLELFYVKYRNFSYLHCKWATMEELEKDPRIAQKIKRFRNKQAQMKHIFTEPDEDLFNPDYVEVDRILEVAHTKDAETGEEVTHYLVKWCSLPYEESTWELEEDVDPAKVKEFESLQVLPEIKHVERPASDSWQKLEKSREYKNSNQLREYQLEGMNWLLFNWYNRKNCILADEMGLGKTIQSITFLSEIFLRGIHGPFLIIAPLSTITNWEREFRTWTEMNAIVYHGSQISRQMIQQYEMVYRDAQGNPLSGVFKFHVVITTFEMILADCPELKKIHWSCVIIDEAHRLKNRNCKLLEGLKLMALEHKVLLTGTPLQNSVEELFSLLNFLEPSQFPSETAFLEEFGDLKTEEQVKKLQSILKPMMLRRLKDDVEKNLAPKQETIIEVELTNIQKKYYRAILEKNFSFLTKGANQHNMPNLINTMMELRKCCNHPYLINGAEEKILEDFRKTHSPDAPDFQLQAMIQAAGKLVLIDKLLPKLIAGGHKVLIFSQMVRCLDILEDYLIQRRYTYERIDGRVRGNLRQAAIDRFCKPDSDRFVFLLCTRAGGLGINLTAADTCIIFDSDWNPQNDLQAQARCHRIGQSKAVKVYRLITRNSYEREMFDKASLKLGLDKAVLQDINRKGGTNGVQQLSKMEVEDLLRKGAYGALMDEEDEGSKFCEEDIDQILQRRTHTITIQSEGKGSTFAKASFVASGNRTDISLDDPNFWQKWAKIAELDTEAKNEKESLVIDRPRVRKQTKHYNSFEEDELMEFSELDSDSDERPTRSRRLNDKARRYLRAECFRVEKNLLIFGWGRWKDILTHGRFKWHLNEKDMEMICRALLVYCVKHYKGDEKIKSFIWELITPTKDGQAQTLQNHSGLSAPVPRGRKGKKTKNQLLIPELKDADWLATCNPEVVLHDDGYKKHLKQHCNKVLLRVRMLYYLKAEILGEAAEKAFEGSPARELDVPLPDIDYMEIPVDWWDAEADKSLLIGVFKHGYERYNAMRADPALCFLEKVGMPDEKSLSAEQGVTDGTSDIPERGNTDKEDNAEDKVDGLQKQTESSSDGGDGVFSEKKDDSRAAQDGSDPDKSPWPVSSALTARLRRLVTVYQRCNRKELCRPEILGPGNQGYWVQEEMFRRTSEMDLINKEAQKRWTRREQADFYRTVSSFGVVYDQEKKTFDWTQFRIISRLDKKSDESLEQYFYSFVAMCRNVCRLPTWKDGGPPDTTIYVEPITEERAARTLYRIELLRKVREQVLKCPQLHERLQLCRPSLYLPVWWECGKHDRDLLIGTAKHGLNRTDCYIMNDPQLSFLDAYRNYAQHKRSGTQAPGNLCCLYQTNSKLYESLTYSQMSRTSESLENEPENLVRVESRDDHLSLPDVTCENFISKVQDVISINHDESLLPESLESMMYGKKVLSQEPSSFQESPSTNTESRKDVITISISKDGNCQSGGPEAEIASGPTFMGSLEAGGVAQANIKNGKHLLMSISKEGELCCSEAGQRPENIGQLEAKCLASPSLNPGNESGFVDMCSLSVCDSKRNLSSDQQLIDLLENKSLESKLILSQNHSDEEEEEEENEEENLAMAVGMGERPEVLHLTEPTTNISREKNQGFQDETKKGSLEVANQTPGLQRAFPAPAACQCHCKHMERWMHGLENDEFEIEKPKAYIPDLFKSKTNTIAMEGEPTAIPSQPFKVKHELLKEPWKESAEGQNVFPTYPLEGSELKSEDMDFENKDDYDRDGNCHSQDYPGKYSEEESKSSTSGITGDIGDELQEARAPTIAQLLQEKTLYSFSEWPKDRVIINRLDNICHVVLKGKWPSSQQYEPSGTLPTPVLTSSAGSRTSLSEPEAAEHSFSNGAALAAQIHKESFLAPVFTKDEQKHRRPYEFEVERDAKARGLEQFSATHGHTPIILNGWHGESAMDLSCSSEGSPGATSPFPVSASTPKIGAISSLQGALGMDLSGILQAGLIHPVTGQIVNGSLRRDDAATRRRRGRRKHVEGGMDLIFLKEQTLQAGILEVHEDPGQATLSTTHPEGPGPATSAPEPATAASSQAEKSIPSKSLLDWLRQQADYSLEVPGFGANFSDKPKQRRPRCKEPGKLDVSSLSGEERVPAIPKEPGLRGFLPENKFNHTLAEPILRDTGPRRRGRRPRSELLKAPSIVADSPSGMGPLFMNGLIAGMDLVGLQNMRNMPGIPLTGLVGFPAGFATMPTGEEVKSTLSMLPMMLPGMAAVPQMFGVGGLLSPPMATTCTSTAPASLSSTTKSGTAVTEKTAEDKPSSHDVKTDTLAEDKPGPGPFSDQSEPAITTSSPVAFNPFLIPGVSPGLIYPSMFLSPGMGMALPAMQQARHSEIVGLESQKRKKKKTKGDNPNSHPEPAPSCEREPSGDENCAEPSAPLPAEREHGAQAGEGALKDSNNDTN
UniProt Q5VXU3: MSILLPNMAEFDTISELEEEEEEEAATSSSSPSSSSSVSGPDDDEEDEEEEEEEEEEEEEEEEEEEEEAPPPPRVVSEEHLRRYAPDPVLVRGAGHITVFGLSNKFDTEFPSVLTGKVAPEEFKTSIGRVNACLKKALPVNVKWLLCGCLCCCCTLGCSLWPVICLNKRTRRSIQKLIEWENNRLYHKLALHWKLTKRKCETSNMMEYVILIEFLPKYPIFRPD
UniProt Q86X52: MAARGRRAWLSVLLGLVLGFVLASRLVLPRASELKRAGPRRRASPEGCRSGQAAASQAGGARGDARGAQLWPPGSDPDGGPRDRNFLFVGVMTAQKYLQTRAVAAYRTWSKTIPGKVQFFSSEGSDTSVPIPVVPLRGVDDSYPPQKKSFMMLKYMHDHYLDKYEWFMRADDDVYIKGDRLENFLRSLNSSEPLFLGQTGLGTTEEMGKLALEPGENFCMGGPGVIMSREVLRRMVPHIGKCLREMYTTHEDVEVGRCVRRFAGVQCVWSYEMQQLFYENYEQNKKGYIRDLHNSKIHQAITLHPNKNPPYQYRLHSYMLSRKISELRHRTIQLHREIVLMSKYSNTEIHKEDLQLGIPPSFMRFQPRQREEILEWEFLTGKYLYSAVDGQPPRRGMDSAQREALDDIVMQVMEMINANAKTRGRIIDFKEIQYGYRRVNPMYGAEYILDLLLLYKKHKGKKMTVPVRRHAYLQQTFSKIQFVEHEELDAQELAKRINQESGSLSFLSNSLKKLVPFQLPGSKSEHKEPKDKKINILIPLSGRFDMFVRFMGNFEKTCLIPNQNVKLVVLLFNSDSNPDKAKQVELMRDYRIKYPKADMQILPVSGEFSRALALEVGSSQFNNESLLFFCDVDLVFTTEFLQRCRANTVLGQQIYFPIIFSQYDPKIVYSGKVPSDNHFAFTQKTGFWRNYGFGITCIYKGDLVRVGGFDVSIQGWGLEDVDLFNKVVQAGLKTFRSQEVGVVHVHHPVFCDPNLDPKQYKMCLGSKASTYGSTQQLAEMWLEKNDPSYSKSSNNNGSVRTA
UniProt Q9UBR5: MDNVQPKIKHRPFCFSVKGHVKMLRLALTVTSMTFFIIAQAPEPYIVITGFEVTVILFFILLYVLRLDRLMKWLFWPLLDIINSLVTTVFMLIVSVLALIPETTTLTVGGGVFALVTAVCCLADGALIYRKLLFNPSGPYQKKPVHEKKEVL
UniProt P10909, whole entry, looked up: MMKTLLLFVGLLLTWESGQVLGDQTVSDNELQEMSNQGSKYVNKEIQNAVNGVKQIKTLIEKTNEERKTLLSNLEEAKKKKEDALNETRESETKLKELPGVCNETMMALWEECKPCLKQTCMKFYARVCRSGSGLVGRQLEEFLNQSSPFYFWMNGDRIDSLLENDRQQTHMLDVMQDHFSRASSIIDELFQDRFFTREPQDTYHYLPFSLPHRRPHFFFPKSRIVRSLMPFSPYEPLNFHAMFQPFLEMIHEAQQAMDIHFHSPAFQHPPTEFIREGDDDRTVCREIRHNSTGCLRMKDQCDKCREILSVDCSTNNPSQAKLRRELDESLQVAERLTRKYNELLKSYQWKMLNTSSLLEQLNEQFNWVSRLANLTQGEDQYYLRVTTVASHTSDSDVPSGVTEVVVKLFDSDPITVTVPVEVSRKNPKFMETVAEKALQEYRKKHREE
UniProt Q9BQT9: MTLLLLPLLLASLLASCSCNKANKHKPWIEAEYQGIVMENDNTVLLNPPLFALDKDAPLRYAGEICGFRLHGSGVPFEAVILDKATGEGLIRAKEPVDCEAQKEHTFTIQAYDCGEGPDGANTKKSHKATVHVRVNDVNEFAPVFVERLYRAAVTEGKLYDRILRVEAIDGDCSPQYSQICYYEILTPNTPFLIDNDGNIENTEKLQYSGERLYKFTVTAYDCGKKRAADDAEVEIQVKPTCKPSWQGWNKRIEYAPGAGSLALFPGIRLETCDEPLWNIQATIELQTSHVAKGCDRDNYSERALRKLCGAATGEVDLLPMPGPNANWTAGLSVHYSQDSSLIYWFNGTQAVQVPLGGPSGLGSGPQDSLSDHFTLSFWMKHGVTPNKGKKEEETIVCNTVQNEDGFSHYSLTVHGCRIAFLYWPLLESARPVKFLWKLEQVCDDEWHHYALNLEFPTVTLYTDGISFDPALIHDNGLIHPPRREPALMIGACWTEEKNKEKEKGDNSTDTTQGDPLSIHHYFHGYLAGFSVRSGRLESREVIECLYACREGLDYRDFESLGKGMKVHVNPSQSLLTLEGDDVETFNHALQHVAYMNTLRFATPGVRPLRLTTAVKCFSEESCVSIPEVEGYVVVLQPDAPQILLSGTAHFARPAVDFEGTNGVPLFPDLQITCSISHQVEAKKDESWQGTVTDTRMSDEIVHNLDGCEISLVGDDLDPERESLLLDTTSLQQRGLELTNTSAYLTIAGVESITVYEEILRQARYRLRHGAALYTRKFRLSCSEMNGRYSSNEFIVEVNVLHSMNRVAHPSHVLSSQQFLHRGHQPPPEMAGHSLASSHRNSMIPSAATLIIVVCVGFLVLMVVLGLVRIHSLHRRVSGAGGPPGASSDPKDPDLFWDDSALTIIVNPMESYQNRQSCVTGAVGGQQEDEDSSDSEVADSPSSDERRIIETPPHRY

[2] = compound: CCN(CCCOc1ccc2c(Nc3cc(CC(=O)Nc4cccc(F)c4)[nH]n3)ncnc2c1)CCOP(=O)(O)O [barasertib]
In short: as §1

[3] = compound: CC[C@@H]1C(=O)N(C)c2cnc(Nc3ccc(C(=O)NC4CCN(C)CC4)cc3OC)nc2N1C1CCCC1
In short: as §1

[4] = compound: CCn1cc(-c2ccnc3[nH]c(-c4cccc(CN(C)C)c4)cc23)c(-c2ccc(NC(=O)N(C)C)cc2)n1
In short: as §1

[5] = compound: CN1CCC(CNc2ccc3ncc(-c4cccc(OC(F)(F)F)c4)n3n2)CC1
In short: as §1

[6] = compound: CN1CCN(CCOc2cc(OC3CCOCC3)c3c(Nc4c(Cl)ccc5c4OCO5)ncnc3c2)CC1 [saracatinib]
In short: as §1

[7] = compound: CN1CCN(c2nc(C3=C(c4c[nH]c5ccccc45)C(=O)NC3=O)c3ccccc3n2)CC1 [sotrastaurin]
In short: as §1

[8] = compound: CCCS(=O)(=O)Nc1ccc(F)c(C(=O)c2c[nH]c3ncc(Cl)cc23)c1F
In short: as §1

[9] = compound: CC[C@@H]1C(=O)N(C)c2cnc(Nc3ccc(C(=O)N[C@H]4CC[C@H](N5CCN(CC6CC6)CC5)CC4)cc3OC)nc2N1C(C)C [volasertib]
In short: as §1

[10] = compound: CCn1c(C(=O)N(C2CC2)C2CC2)cc2c3c(ncn3C)c(Nc3cc(C)n(C)n3)nc21
In short: as §1

Measured: log2 fold change

CLINT1 (UniProt Q14677)
inactive: [1] 0.131 | [2] 0.075 | [3] 0.182 | [4] -0.051 | [5] -0.005 | [6] 0.031 | [7] -0.102

CHUK (UniProt O15111)
inactive: [1] 0.026 | [8] 0.001 | [2] 0.059 | [3] -0.095 | [9] -0.047 | [10] -0.045 | [4] 0.111 | [5] -0.097 | [6] 0.059 | [7] 0.017

CHFR (UniProt Q96EP1)
inactive: [1] -0.252 | [8] 0.063 | [3] -0.013 | [9] 0.043 | [10] 0.052 | [6] 0.052 | [7] 0.033

CLUL1 (UniProt Q15846)
inactive: [1] 0.019 | [8] -0.128 | [2] 0.358 | [9] -0.018 | [4] -0.332 | [5] 0.065

CHD9 (UniProt Q3L8U1)
inactive: [1] -0.028 | [10] -0.139 | [5] -0.122 | [6] 0.114 | [7] 0.17
active: [4] 1.88

CHST11 (UniProt Q9NPF2)
inactive: [1] 0.068 | [2] 0.152 | [3] 0.024 | [10] 0.008 | [4] -0.082 | [5] -0.047 | [6] 0.119 | [7] -0.014

CLTA isoform 2 (UniProt P09496)
inactive: [1] -0.158 | [8] -0.005 | [2] 0.04 | [3] 0.171 | [9] 0.039 | [10] -0.114 | [6] -0.061 | [7] 0.034

CHST10 (UniProt O43529)
inactive: [1] -0.186 | [4] -0.172 | [5] -0.097

CLASP2 (UniProt O75122)
inactive: [1] 0.241 | [8] 0.072 | [2] -0.015 | [3] 0.021 | [9] -0.052 | [10] -0.098 | [4] -0.077 | [5] 0.073 | [7] 0.18

CKAP2L (UniProt Q8IYA6)
inactive: [1] -0.031 | [3] -0.02 | [10] 0.146 | [4] 0.048 | [5] 0.041 | [6] 0.126 | [7] -0.069

CLUAP1 (UniProt Q96AJ1)
inactive: [1] -0.424 | [8] 0.092 | [3] -0.357 | [9] 0.034 | [10] 0.075 | [4] 0.107 | [5] 0.084 | [6] 0.201 | [7] -0.057

CHD6 (UniProt Q8TD26)
inactive: [1] 0.002 | [2] 0.117 | [3] 0.162 | [10] 0.061 | [4] 0.039 | [5] 0.003 | [6] -0.142 | [7] -0.022

CLUAP1 (UniProt I3L2E1)
inactive: [1] 0.18 | [8] 0.138 | [2] 0.066 | [3] 0.211 | [9] 0.213 | [10] -0.501 | [7] -0.247

CHIC1 (UniProt Q5VXU3)
inactive: [1] 0.042 | [4] 0.329 | [5] -0.161

CKS2 (UniProt P33552)
inactive: [1] -0.142 | [3] -0.139 | [4] -0.026 | [5] 0.036

CLK2 (UniProt P49760)
inactive: [8] 0.286 | [9] -0.231 | [6] -0.054 | [7] 0.156

CHCHD5 (UniProt Q9BSY4)
inactive: [10] 0.176 | [4] 0 | [5] -0.124 | [6] 0.112 | [7] -0.019

CLCN2 (UniProt P51788)
inactive: [8] 0.075 | [2] 0.01 | [3] -0.144 | [9] -0.103 | [10] 0.045 | [4] -0.003 | [5] 0.068 | [6] 0.055 | [7] 0.049

CHSY1 (UniProt Q86X52)
inactive: [8] 0.002 | [2] 0.015 | [9] -0.215 | [10] 0.06 | [4] -0.315 | [5] -0.08 | [6] 0.02

CKAP4 (UniProt Q07065)
inactive: [8] 0.049 | [2] 0.03 | [3] -0.223 | [9] 0.097 | [4] -0.142 | [5] -0.242 | [6] -0.01 | [7] -0.09

CITED2 (UniProt Q99967)
inactive: [6] 0.131

CMTR2 (UniProt Q8IYT2)
inactive: [8] 0.16 | [9] 0.214 | [10] -0.188

CLEC16A isoform 2 (UniProt Q2KHT3)
inactive: [8] -0.076 | [2] 0.095 | [9] -0.127 | [10] 0.052 | [6] 0.063 | [7] 0.118

CLEC11A (UniProt Q9Y240)
inactive: [8] -0.033 | [3] -0.099 | [9] 0.001 | [7] -0.098

CLDN7 (UniProt O95471)
inactive: [3] 0.036

CHMP4A (UniProt H0YIN6)
inactive: [8] 0.049 | [2] -0.012 | [9] 0.024 | [10] -0.495 | [4] -0.274 | [5] 0.158 | [6] 0.201 | [7] -0.088

CHD4, A0A2R8Y521
inactive: [8] -0.315 | [3] -0.053 | [9] 0.103 | [10] -0.342 | [6] 0.149

CLN3 (UniProt Q13286)
inactive: [8] -0.071 | [2] -0.05 | [9] -0.053 | [10] -0.035 | [6] 0.054

CHURC1-FNTB (UniProt B4DL54)
inactive: [3] -0.052 | [4] -0.346 | [5] 0.037 | [7] -0.223

CKMT2 (UniProt D6RHV3)
inactive: [8] -0.042 | [9] 0.058

CNBP (UniProt P62633)
inactive: [8] 0.168 | [2] -0.006 | [9] 0.098

CIR1 (UniProt Q86X95)
inactive: [8] 0.015 | [3] -0.005 | [9] 0.016 | [10] -0.009 | [6] 0.172 | [7] 0.015

CHPF (UniProt Q8IZ52)
inactive: [2] 0.007 | [3] -0.047 | [10] 0.01 | [4] 0.061 | [5] 0.038 | [6] 0.169 | [7] -0.147

CKLF (UniProt Q9UBR5)
inactive: [8] -0.123 | [9] -0.056 | [10] 0.161 | [4] 0.167 | [5] 0.034 | [6] 0.01 | [7] -0.268

CHPT1 (UniProt Q8WUD6)
inactive: [2] 0.083 | [10] 0.249 | [4] 0.393 | [5] -0.085

CHTF8 (UniProt P0CG13)
inactive: [8] 0.074 | [2] 0.123 | [3] 0.068 | [9] -0.104 | [10] 0.042 | [4] -0.096 | [5] -0.063 | [6] 0.062 | [7] -0.057

CHMP2A (UniProt M0R1T5)
inactive: [4] -0.034 | [5] -0.198

CIC (UniProt I3L1Q4)
inactive: [2] -0.169

CLU isoform 2 (UniProt P10909)
inactive: [4] 0.261 | [5] -0.039

CLN8 (UniProt Q9UBY8)
inactive: [8] -0.195 | [2] 0.221 | [3] -0.257 | [9] -0.006 | [10] 0.034 | [4] -0.018 | [5] -0.011 | [6] 0.067 | [7] 0.044

CLIP2 (UniProt Q9UDT6)
inactive: [8] 0.089 | [2] -0.017 | [3] 0.013 | [9] 0.039 | [4] -0.184 | [5] -0.225 | [6] -0.135 | [7] 0.039

CLK1 isoform 3 (UniProt P49759)
inactive: [2] 0.109 | [3] 0.424 | [9] 0.065 | [10] -0.28 | [4] -0.224 | [5] -0.019

CLSTN3 isoform 2 (UniProt Q9BQT9)
inactive: [8] 0.029 | [9] 0.014 | [10] -0.158 | [6] 0.045 | [7] 0.086

CHST14 (UniProt Q8NCH0)
inactive: [4] -0.022 | [5] -0.014 | [6] -0.078 | [7] 0.074
